# Assay results

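Luminescence from an EWS-FLI1 target-promoter (NR0B1) reporter, set against a CMV-promoter reporter, two days after silencing single genes in TC32 Ewing sarcoma cells. Each siRNA was applied at 20 nM. A z-score of the log NR0B1-over-CMV signal, less the median of siRNAs with the same seed; more negative means a stronger specific loss of the NR0B1 reporter.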

The strongest results of the screen are mostly left out here. Sequences are the guide (antisense) strand, without overhang.

{"strand": "AUGGGAGUAAAAAUACUCA", "target gene": "PBX4", "seed-corrected z-score": "-0.6485"}
{"strand": "UAUUUAGCAUCCAAUAGGU", "target gene": "SVOPL", "seed-corrected z-score": "0.2526"}
{"strand": "UAAUGUCAUAGACAACCAC", "target gene": "RAB41", "seed-corrected z-score": "-0.301"}
{"strand": "UUUGUCACUGAACCGCACC", "target gene": "C15orf59", "seed-corrected z-score": "-0.007675"}
{"strand": "UUACGUCUAAGCACUGUUC", "target gene": "GVINP1", "seed-corrected z-score": "0.3063"}
{"strand": "UGAACACCAAAGUUCAUGG", "target gene": "ELOVL3", "seed-corrected z-score": "0.3245"}
{"strand": "AACAUGACAAACAACUUUC", "target gene": "ARR3", "seed-corrected z-score": "-0.491"}
{"strand": "UGUACUGUUCAAACCAGGG", "target gene": "CST11", "seed-corrected z-score": "0.3406"}
{"strand": "UGGGCUUCCUUAGUGCUGG", "target gene": "PLIN1", "seed-corrected z-score": "-0.5824"}
{"strand": "UUUUGUUGUCCAACAGUUG", "target gene": "TMEM87B", "seed-corrected z-score": "-0.7449"}
{"strand": "UGUAAUUCGACUGAAGACC", "target gene": "ZNF766", "seed-corrected z-score": "-0.5007"}
{"strand": "UCCUUUGCCAAAGACAAGA", "target gene": "KRTCAP2", "seed-corrected z-score": "-0.5649"}
{"strand": "UACGUGAAUCGGAUUGUUC", "target gene": "AKT1", "seed-corrected z-score": "-0.3942"}
{"strand": "AACACCUACAAUAAGCUGC", "target gene": "CISD2", "seed-corrected z-score": "0.2271"}
{"strand": "UUACUUCAAUGUAGUCACC", "target gene": "IRS4", "seed-corrected z-score": "1.552"}
{"strand": "UAAAAGUCCUGCUUGAUGA", "target gene": "MPPED1", "seed-corrected z-score": "0.194"}
{"strand": "UAGGGUUGGACAAGAAGCC", "target gene": "CILP", "seed-corrected z-score": "0.3738"}
{"strand": "AUCUUACUAAUGAGAAGGG", "target gene": "TUBB7P", "seed-corrected z-score": "-0.8796"}
{"strand": "ACAUUGAAUGGUAUCACCC", "target gene": "PPIA", "seed-corrected z-score": "0.01599"}
{"strand": "UCAAACACCAGUGACCCAG", "target gene": "ATF3", "seed-corrected z-score": "-0.3569"}
{"strand": "UUUCUUCUUAAAUAGAGGG", "target gene": "DPH6", "seed-corrected z-score": "-0.515"}
{"strand": "UCUUGCCCAACAGGUCACC", "target gene": "SAMD11", "seed-corrected z-score": "0.384"}
{"strand": "UUCGUUAUCCGAGGUGUCU", "target gene": "HOXC10", "seed-corrected z-score": "-1.361"}
{"strand": "AACCUUGGUAGACUAGUCC", "target gene": "OCIAD2", "seed-corrected z-score": "-0.9417"}
{"strand": "UGCUAUAAUCGAUAUGACC", "target gene": "FER1L5", "seed-corrected z-score": "-1.159"}
{"strand": "UUAUAGCCCAUAUCCGGUC", "target gene": "NEK7", "seed-corrected z-score": "0.03917"}
{"strand": "UUCCUUAUCCUCACUAUCC", "target gene": "PPP1R15A", "seed-corrected z-score": "-0.5193"}
{"strand": "UCUGCUUCAGCUGUCGUCG", "target gene": "ADORA2A", "seed-corrected z-score": "-0.01058"}
{"strand": "UUACACUGUAGUACCGUCC", "target gene": "HDAC8", "seed-corrected z-score": "-0.5119"}
{"strand": "UGUCAAAACACUGGUCACU", "target gene": "TFF2", "seed-corrected z-score": "1.091"}
{"strand": "UUGUUGUCUAUCCAAGUGC", "target gene": "SEC24D", "seed-corrected z-score": "-0.1164"}
{"strand": "AAAGAUCUGAUUAUUACCC", "target gene": "MAGEA4", "seed-corrected z-score": "0.5753"}
{"strand": "UAAUCUUCGAAUUACCACC", "target gene": "UPF3B", "seed-corrected z-score": "0.529"}
{"strand": "UACUUGAUUAAGCGAGUUG", "target gene": "GBA3", "seed-corrected z-score": "-0.419"}
{"strand": "UAGGACACUCUGUAGGUGG", "target gene": "COL26A1", "seed-corrected z-score": "-0.2327"}
{"strand": "UUGGUUGGAAUUAAUCUGC", "target gene": "IRF1", "seed-corrected z-score": "-0.7198"}
{"strand": "UGUAAUAAGAAUCAGAUGG", "target gene": "C1orf185", "seed-corrected z-score": "0.3085"}
{"strand": "UCAGUUUCUGAGGUUAGGA", "target gene": "CAPS", "seed-corrected z-score": "-0.5025"}
{"strand": "UCAGACAUCUGUAUGCUCC", "target gene": "BRS3", "seed-corrected z-score": "-0.3875"}
{"strand": "UCACUAUAGAGGGAUUCAG", "target gene": "NR1D1", "seed-corrected z-score": "0.2784"}
{"strand": "AGUGGUAAAGUCUUGACUG", "target gene": "CLCN1", "seed-corrected z-score": "-0.06229"}
{"strand": "UUACAACUAAUAUCAGCAC", "target gene": "SLC18B1", "seed-corrected z-score": "0.08814"}
{"strand": "UUUCCGAUAACCUUCCAGG", "target gene": "ATP10D", "seed-corrected z-score": "-0.3843"}
{"strand": "AUAGGUGAGAAGAUAUCCG", "target gene": "TMSB15A", "seed-corrected z-score": "1.208"}
{"strand": "UGAUGAAUCAGGAUAAAAC", "target gene": "ZNF69", "seed-corrected z-score": "-0.4449"}

The results are deposited in PubChem (AID1159506; NCATS, 2015).